Source: patent publication US20100003740A1, “CHEMICALLY DEFINED CULTURE MEDIUM FOR NEISSERIA” (priority 2006, published 2010)

Test system: N. gonorrhoeae
Assay: MIC determination by macrobroth dilution in the medium compared with E-test strips on chocolate agar (Example 5, FIG. 6)
Format: cell-based
Conditions: 8 strains of N. gonorrhoeae; susceptible, intermediate or resistant by published breakpoints

With O=C(O)c1cn(C2CC2)c2cc(N3CCNCC3)c(F)cc2c1=O [ciprofloxacin] the “percentage of strains allocated to same susceptibility category by both methods” value was 100 percentage.
